Experimental findings from patent US20230303690A1 (published 2023) are described below.

No constants are given. Whether binding was seen depends on the method and setting. Some results given as binding are weak or reduced against the parent protein; the word gives no strength. Sequences can lack the tags named with a protein.

The assay deals with T1, LAG3 Protein, Human, Recombinant (His Tag) (Sino Biological Catalog No. 16498-H08H) (human) (UniProt P18627).
T1 sequence (looked up): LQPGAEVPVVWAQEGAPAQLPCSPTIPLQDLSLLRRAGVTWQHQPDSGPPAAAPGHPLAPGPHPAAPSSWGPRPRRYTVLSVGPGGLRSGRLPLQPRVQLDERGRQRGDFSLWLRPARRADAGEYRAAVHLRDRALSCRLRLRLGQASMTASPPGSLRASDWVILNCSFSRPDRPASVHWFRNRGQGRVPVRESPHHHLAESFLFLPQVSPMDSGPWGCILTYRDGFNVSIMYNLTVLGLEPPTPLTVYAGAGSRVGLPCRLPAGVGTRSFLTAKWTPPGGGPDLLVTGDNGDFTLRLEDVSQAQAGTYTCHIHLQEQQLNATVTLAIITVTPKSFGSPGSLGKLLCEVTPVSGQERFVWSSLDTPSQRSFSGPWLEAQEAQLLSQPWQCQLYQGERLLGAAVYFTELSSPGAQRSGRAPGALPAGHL
Briefly: ELISA, coated hLAG3-His. (In an ELISA, binding on a coated surface is turned into a signal by an enzyme label.)

B1: sdAb No. 25-B6 (VHH)
VHH: QLQLVESGGGLVKPGGSLRLSCAASGSIESFSFMGWYRQAPGKQREWVAGFTGAASLSFSTYTDAVKGRFTISRDNAKNSVYLQMNSLRAEDTAVYYCNVDPWSQSWPGRYWGQGTTVTVSS
notes: Humanized sdAb No. 25; not shown: Fc part implied by anti-human IgG1 Fc detection
For the molecule B1, the binding entry is “binds”.
